PubChem BioAssay AID602233 (National Center for Advancing Translational Sciences (NCATS), 2012)
The whole screen tested about 380,000 compounds, of which about 170 (0.045%) were called active. All entries are inconclusive by the source's own rule. Clear calls are listed elsewhere. Calls follow the shape of the dose curve; as a rule, active = well fitted inhibition curve with a large enough effect; inconclusive = small, poorly fitted or top-dose-only effect; inactive = no such curve, though single readings can be large or run the other way.

Target: Phosphoglycerate kinase, glycosomal (Trypanosoma brucei brucei) (UniProt P07378)
Test: qHTS Assay to Find Inhibitors of Phosphoglycerate Kinase; also: nearly all actives have a fitted effect of over 60% in size
Conditions: PGK/GAPDH coupled, Kinase-Glo luminescence, 60 min
Text: Several species of the Trypanosomatidae family of parasitic protozoans cause a spectrum of diseases throughout the tropical and subtropical world. Sleeping sickness, caused by two subspecies of Trypanosoma brucei, is endemic to areas of sub-Saharan Africa, while Chagas disease, a manifestation of Trypanosoma cruzi infection, is prevalent throughout Central and South America. In addition, many species of Leishmania are responsible for a range of cutaneous and visceral diseases, causing ulcers, destructive lesions and kalaazar, a lethal infection of the viscera. Collectively, these organisms infect 30 million people worldwide (~500 million live in endemic areas), and account for ~130,000 deaths annually. Given their debilitating and prevalent nature, trypanosomatid parasites impose a heavy medical, economic and social burden on entire populations, primarily in the developing world. […]
3ul of substrate/PGK buffer (columns 1,2,5-48) are dispensed into Greiner white solid bottom 1536-well assay plates; columns 3-4 receive only TEA buffer as 0x PGK controls. […] Kinase-Glo Plus reagent is added (2ul) and plates incubated for 10 minutes, before being transferred to a ViewLux high-throughput CCD imager (PerkinElmer) wherein single end-point measurements of luminescence are acquired using a clear filter. […]
Potency is read from the fitted curve at half-maximal effect.

Compound	Potency
O=C1C(O)=C([N+](=O)[O-])C(=O)C(O)=C1[N+](=O)[O-]	inconclusive: 10 µM
